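Whole-parasite assay of Trypanosoma brucei over 72 hours; the read-out is not stated. Concentration: 10 µM. The record gives no direction; compounds that gave an IC50 in retests scored well above the rest, so higher reads as stronger inhibition. Values scatter widely below zero; nearly all retest evidence comes from the higher of the two concentrations used. Size under these conditions: about 2,700 compounds, about 14 of them at 50% or above in at least one test.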

Results are given as percent effect.
The record does not define 0% and 100%; most values in the screen are far below 50% and negative numbers occur (in some assays of this library far below -100).
Compounds were drawn at random from those tested, without regard to their results.

compound: CCc1ncncc1C(=O)N1CCCC(n2nc(C)nc2C)C1 (centres undefined)
Percent Effect: -32.89

compound: Cc1ccccc1-c1noc(CN2CCc3nn(C)c(=O)cc3C2)n1
Percent Effect: -3.221

compound: CC(C)c1ccc(OCC(=O)NS(=O)(=O)c2cccnc2)cc1
Percent Effect: -79.47

compound: CNC(=O)c1ccc(C(=O)N2CCC(Nc3cccnn3)CC2)cn1
Percent Effect: -50.05

compound: Cc1nc(CN(C)C2CCN(Cc3ccc(C(N)=O)cc3)C2)no1 (centres undefined)
Percent Effect: -45.18

compound: CC(Cn1cccn1)NC(=O)Cc1csc(C(C)C)n1 (centres undefined)
Percent Effect: -2.848

compound: CN(C)C1CCCN(C(=O)NCc2ccccc2-n2cccn2)C1 (centres undefined)
Percent Effect: -21.11

compound: CC(=O)N1CCCN(C(=O)c2cnn(C(C)(C)C)c2C)CC1
Percent Effect: -40.41

compound: c1cncc(-c2noc(CN3CCCCC3Cn3cccn3)n2)c1 (centres undefined)
Percent Effect: -40.86

compound: CCc1nc(CN2CCCN(Cc3nnc(C4CC4)o3)CC2)no1
Percent Effect: -9.568

compound: Cc1cnc(CN2CCC(N(C)Cc3noc(C4CC4)n3)C2)o1 (centres undefined)
Percent Effect: -37.51

compound: O=C(CCc1ccc(Cl)s1)N1CCC(N2CCNC2=O)CC1
Percent Effect: -35.6

compound: CCCc1nc(C)c(C(=O)NCCN2CCOCC2)s1
Percent Effect: -37.96

compound: NS(=O)(=O)c1cc(C(=O)N2CCCC(n3ccnc3)C2)cs1 (centres undefined)
Percent Effect: -37.51

compound: Cc1ncccc1CNCC1CCN(CC(C)O)CC1 (centres undefined)
Percent Effect: -16.73

compound: Cn1cc(Cl)cc1C(=O)N1CCCN(Cc2nccn2C)CC1
Percent Effect: -25.95

compound: CCn1ccnc1CN1CCN(CC(=O)NC(C2CC2)C2CC2)CC1
Percent Effect: -15.39

compound: CCc1n[nH]c(C2CN(C(=O)c3cc(C(N)=O)cs3)CCO2)n1 (centres undefined)
Percent Effect: -4.604

compound: Cc1nc(CN2CCC(N3CCN(C)C3=O)CC2)no1
Percent Effect: 19.25

compound: Cc1cnn(CC2CN(CC(=O)Nc3nncs3)CCO2)c1 (centres undefined)
Percent Effect: -11.92

compound: CCc1ncc2c(n1)CN(CC(=O)Nc1cccnc1)CC2
Percent Effect: -41.85

compound: Cc1nc(C2CCCN2C(=O)CCn2cncn2)no1 (centres undefined)
Percent Effect: -40.15

compound: Cc1cn2nc(N3CCCC3Cn3cccn3)sc2n1 (centres undefined)
Percent Effect: -37.17

compound: CC1CCN(Cc2ccc(CNC(=O)c3ccn(C)c(=O)c3)cc2)CC1
Percent Effect: -36.35

compound: NC(=O)Cn1cc(NC(=O)N2CCN(c3ccccc3)CC2)cn1
Percent Effect: -75.9

compound: Cc1cnn(CC2CCCN2C(=O)CCc2ccncc2)c1 (centres undefined)
Percent Effect: -37.34

compound: CCn1cnnc1CNC(=O)N1CCCC1
Percent Effect: -59.17

compound: O=C(c1sccc1C1CC1)N1CCN(CC(F)(F)F)CC1
Percent Effect: -14.84

compound: CCc1noc(CN2CCN(C(=O)N(CC)CC)CC2)n1
Percent Effect: -2.324

compound: Cc1cc(C)c(CNC(=O)N2CCN(c3ccccn3)CC2)c(=O)[nH]1
Percent Effect: -32.75

compound: COc1ccc(C)cc1C(=O)N1CCCC(n2nc(C)nc2C)C1 (centres undefined)
Percent Effect: -5.454

compound: O=C(NCc1ccccn1)NCc1ccc(Cl)s1
Percent Effect: -25.4

compound: Cc1cnn(CC2CCCN2C(=O)CCc2ccc3c(c2)OCO3)c1 (centres undefined)
Percent Effect: -26.78

compound: Cn1cc(CCNCc2cc(Cl)c3c(c2)OCCO3)cn1
Percent Effect: -29.09

compound: Cc1cnn(CC2CCCN2C(=O)Cc2ccc(C)nc2)c1 (centres undefined)
Percent Effect: -20.63

compound: CCn1cnnc1CNC(=O)N1CCC(OCc2ccccc2)CC1
Percent Effect: -49.17

compound: CS(=O)(=O)N1CCC(NC(=O)COc2ccc3ccccc3c2)CC1
Percent Effect: -51.62

compound: CCOc1ccnc(N2CCN(C(=O)c3cc[nH]n3)CC2)n1
Percent Effect: -61.3

compound: CC(C)(CNC(=O)COc1cccc(F)c1)C(N)=O
Percent Effect: -3.967

compound: Cc1cnn(CC(C)NCc2ccncc2)c1 (centres undefined)
Percent Effect: -12.22

4 of the entries, repeated:

compound	Percent Effect
Cc1cnn(CC2CCCN2C(=O)CCc2ccc3c(c2)OCO3)c1 (centres undefined)	-26.78
Cc1cnc(CN2CCC(N(C)Cc3noc(C4CC4)n3)C2)o1 (centres undefined)	-37.51
CN(C)C1CCCN(C(=O)NCc2ccccc2-n2cccn2)C1 (centres undefined)	-21.11
Cc1nc(CN(C)C2CCN(Cc3ccc(C(N)=O)cc3)C2)no1 (centres undefined)	-45.18

Source: ChEMBL document CHEMBL3988442, “University of Dundee, Small-Polar-MMV Screening Library” (2021).